Reference: PubChem BioAssay AID1259425 (University of Nebraska Medical Center, 2018)

Purpose: 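Compare each knockdown with KSR1 silencing using changes in marker transcripts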 (primary screen)
Cell system: HCT116 human colon cancer cells
Reagent: siRNA pool against human genes, 50 nM siRNA
Measured: 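mRNA of six signature genes measured together by branched-DNA assay after 50 nM siRNA pool, blank removed, divided by geometric mean of two housekeeping genes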
Scale: BNIP3L mRNA: higher = more BNIP3L transcript after knockdown; NDRG1 mRNA: higher = more NDRG1 transcript after knockdown; BNIP3 mRNA: higher = more BNIP3 transcript after knockdown; ALDOC mRNA: higher = more ALDOC transcript after knockdown; ACSL5 mRNA: higher = more ACSL5 transcript after knockdown
The whole screen tested about 14,000 reagents; below is an unselected part. Not stated in the record: the time to read-out.

Gene	BNIP3L mRNA, set 1	NDRG1 mRNA, set 1	BNIP3 mRNA, set 1	ALDOC mRNA, set 1	ACSL5 mRNA, set 1
SLMAP (sarcolemma associated protein)	0.0601	0.112	0.254	0.0275	0.103
MIER2 (MIER family member 2)	0.124	0.585	0.324	0.0535	0.204
PPA1 (inorganic pyrophosphatase 1)	0.0882	0.266	0.221	0.0367	0.203
MCRS1 (microspherule protein 1)	0.112	0.758	0.412	0.0861	0.167
FMN2 (formin 2)	0.0641	0.0954	0.353	0.0359	0.23
KLHL20 (kelch like family member 20)	0.0615	0.218	0.157	0.0361	0.313
LGI1 (leucine rich glioma inactivated 1)	0.136	0.151	0.469	0.0368	0.178
PHAX (phosphorylated adaptor for RNA export)	0.127	0.193	0.191	0.052	0.251
MYT1 (myelin transcription factor 1)	0.121	0.19	0.314	0.00662	0.186
CMPK1 (cytidine/uridine monophosphate kinase 1)	0.0724	0.111	0.265	0.0117	0.163
TRMT10C (tRNA methyltransferase 10C, mitochondrial RNase P subunit)	0.0487	0.222	0.275	0.0114	0.156
TSPEAR (thrombospondin type laminin G domain and EAR repeats)	2.09	4	3.15	0.349	0.189
ZC3H13 (zinc finger CCCH-type containing 13)	0.0641	0.239	0.361	0.0294	0.213
KCNIP1 (potassium voltage-gated channel interacting protein 1)	0.0944	0.148	0.235	0.0242	0.0517
CDH6 (cadherin 6)	0.107	0.0898	0.324	0.0146	0.25
VPS33B (VPS33B late endosome and lysosome associated)	0.161	0.25	0.249	0.0975	0.226
FAM53C (family with sequence similarity 53 member C)	0.221	0.219	0.622	0.0705	0.151
CSN3 (casein kappa)	0.0805	0.281	0.266	0.0268	0.258
CXCL11 (C-X-C motif chemokine ligand 11)	0.0536	0.145	0.159	0.0169	0.15
AASS (aminoadipate-semialdehyde synthase)	0.187	0.0761	0.357	0.03	0.418
CLXN (calaxin)	0.15	0.112	0.192	0.0401	0.117
MELK (maternal embryonic leucine zipper kinase)	0.147	0.279	0.263	0.00829	0.284
NDUFA10 (NADH:ubiquinone oxidoreductase subunit A10)	0.0982	0.13	0.238	0.0409	0.0967
FGR (FGR proto-oncogene, Src family tyrosine kinase)	0.215	0.23	0.37	0.01	0.145
CYP8B1 (cytochrome P450 family 8 subfamily B member 1)	0.0395	0.0677	0.355	0.00821	0.145
GOLGA2P5 (GOLGA2 pseudogene 5)	0.105	0.477	0.401	0.036	0.269
ZDHHC8 (zDHHC palmitoyltransferase 8)	0.268	0.192	0.414	0.0277	0.26
TMPRSS11D (transmembrane serine protease 11D)	0.0657	0.465	0.179	0.0124	0.236
NDE1 (nudE neurodevelopment protein 1)	0.126	0.113	0.355	0.0245	0.113
CPN1 (carboxypeptidase N subunit 1)	0.106	0.13	0.294	0.0207	0.0802
NR2C1 (nuclear receptor subfamily 2 group C member 1)	0.047	0.122	0.152	0.0102	0.0887
KIF26B (kinesin family member 26B)	0.691	2.39	0.765	0.0115	0.196
ZNF444 (zinc finger protein 444)	0.0506	0.149	0.459	0.0259	0.0641
MNX1 (motor neuron and pancreas homeobox 1)	0.132	0.285	0.428	0.012	0.325
SLC29A2	0.177	0.514	0.242	0.137	0.13
POPDC2 (popeye domain cAMP effector 2)	0.0808	0.155	0.387	0.0071	0.224
PTP4A2 (protein tyrosine phosphatase 4A2)	0.0698	0.078	0.304	0.0143	0.171
ATP7A (ATPase copper transporting alpha)	0.11	0.293	0.34	0.0335	0.348
TCFL5 (transcription factor like 5)	0.178	0.107	0.177	0.00685	0.266
MGST1 (microsomal glutathione S-transferase 1)	0.115	0.168	0.235	0.0313	0.0818
PIP4P2 (phosphatidylinositol-4,5-bisphosphate 4-phosphatase 2)	0.0616	0.204	0.282	0.0117	0.145
SASH1 (SAM and SH3 domain containing 1)	0.109	0.181	0.317	0.00604	0.074
AHSG (alpha 2-HS glycoprotein)	0.0991	0.348	0.271	0.0221	0.249
ATG4B (autophagy related 4B cysteine peptidase)	0.118	0.0706	0.14	0.0388	0.0943
GFOD3P	0.147	0.136	0.232	0.0229	0.176
GZMM (granzyme M)	0.414	0.934	1.01	0.0417	0.0856
AMZ2 (archaelysin family metallopeptidase 2)	0.0837	0.0754	0.347	0.0229	0.133
ELMO3 (engulfment and cell motility 3)	0.117	0.486	0.279	0.0331	0.346
KRT36 (keratin 36)	0.121	0.201	0.278	0.0209	0.174
FANCA (FA complementation group A)	0.0737	0.497	0.286	0.0329	0.153

Reformatted: results already given
Gene,"BNIP3L mRNA, set 1","NDRG1 mRNA, set 1","BNIP3 mRNA, set 1","ALDOC mRNA, set 1","ACSL5 mRNA, set 1"
ELMO3 (engulfment and cell motility 3),0.117,0.486,0.279,0.0331,0.346
KRT36 (keratin 36),0.121,0.201,0.278,0.0209,0.174
FANCA (FA complementation group A),0.0737,0.497,0.286,0.0329,0.153
